Measurements reported in PubChem BioAssay AID1259290 (Sanger Institute, 2017).
This is one part, drawn at random, of 794 reagents tested. 9 of all reagents (1.1%) count as active. 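Calls rest on knock-down alone, not drug synergy; synergy above 0.15 was grouped apart and does not affect calls.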 A number with no mark means an inactive call. Viability is capped at 1. Not all columns of the deposit are shown. Not given: the amount of reagent, the time to read-out.

Aim: 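Identify kinases needed for colorectal cancer cell survival, with or without anchor drugs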 (primary screen)
Cells: human SNUC1 colorectal cancer cells
Reagent: siRNA pool against human genes
Conditions: anchor drugs BYL719 1 µM, cetuximab 5 µg/ml or trametinib 10 nM, or DMSO vehicle alone
Measured: 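Viability averaged over replicates and scaled to non-targeting siRNA, robust z-score with no drug, and synergy scores by drug for BYL719, cetuximab and trametinib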
Scale: viability z-score, siRNA alone: higher = more viable cells; low values mean essential gene; viability vs control, siRNA alone: higher = more viable cells
Call rule: 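Essential when the robust viability z-score with siRNA alone falls below -3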
Meaning of the calls: active = essential: knock-down alone cut viability (z below -3); inactive = no clear viability loss with knock-down alone

UHMK1 [SID152150381] showed viability z-score, siRNA alone -1.56; viability vs control, siRNA alone 0.775.
With knock-down of ALPK2 [SID152151764] the results were viability z-score, siRNA alone 0.647; viability vs control, siRNA alone 0.974.
Depletion of TEX14 [SID152148327] gave: viability z-score, siRNA alone 0.936; viability vs control, siRNA alone 1.
Against PRKAG1 [SID135621699], the values are viability z-score, siRNA alone 0.936; viability vs control, siRNA alone 1.
Knock-down of SOS2 [SID152153288] came out at: viability z-score, siRNA alone 0.936; viability vs control, siRNA alone 1.
For SRMS [SID56479047] the deposit lists viability z-score, siRNA alone 0.936; viability vs control, siRNA alone 1.
Silencing of ACSL6 [SID152156030] came out at: viability z-score, siRNA alone -3.53 (active); viability vs control, siRNA alone 0.598.
Knock-down of SPHK1 [SID152154122] resulted in: viability z-score, siRNA alone -0.329; viability vs control, siRNA alone 0.886.
KCNH8 [SID134311656] showed viability z-score, siRNA alone 0.115; viability vs control, siRNA alone 0.926.
TYK2 [SID135620633] gave viability z-score, siRNA alone 0.302; viability vs control, siRNA alone 0.943.
After knock-down of ACVR2A [SID152150723] the results were viability z-score, siRNA alone -0.558; viability vs control, siRNA alone 0.865.
For TNNI3K [SID56478945], the entry reads viability z-score, siRNA alone -0.992; viability vs control, siRNA alone 0.826.
With knock-down of NRBP1 [SID135620974], the record shows viability z-score, siRNA alone 0.239; viability vs control, siRNA alone 0.937.
Against PTGS1 [SID134310518], the entry reads viability z-score, siRNA alone 0.936; viability vs control, siRNA alone 1.
After knock-down of MYLK4 [SID152150692], the record shows viability z-score, siRNA alone 0.187; viability vs control, siRNA alone 0.932.
Against EFNA3 [SID135623696] the deposit lists viability z-score, siRNA alone 0.936; viability vs control, siRNA alone 1.
CERK [SID152152071] scored viability z-score, siRNA alone -1.22; viability vs control, siRNA alone 0.806.
Against MAP3K14 [SID135620705], the values are viability z-score, siRNA alone -1.58; viability vs control, siRNA alone 0.773.
Silencing of HK1 [SID56479165] came out at: viability z-score, siRNA alone 0.915; viability vs control, siRNA alone 0.998.
After knock-down of CSNK1G3 [SID152152817] the results were viability z-score, siRNA alone 0.64; viability vs control, siRNA alone 0.973.
Against PDGFRA [SID135620628], the entry reads viability z-score, siRNA alone 0.936; viability vs control, siRNA alone 1.
BCKDK [SID135620909] showed viability z-score, siRNA alone 0.936; viability vs control, siRNA alone 1.
Against MARK3 [SID56478669] the deposit lists viability z-score, siRNA alone -0.998; viability vs control, siRNA alone 0.826.
PKN2 [SID152156352] gave viability z-score, siRNA alone -3.11 (active); viability vs control, siRNA alone 0.636.
PFKFB4 [SID152152940] gave viability z-score, siRNA alone 0.312; viability vs control, siRNA alone 0.944.
After knock-down of FGFR3 [SID56478513], the record shows viability z-score, siRNA alone 0.936; viability vs control, siRNA alone 1.
After knock-down of ROR2 [SID56478550], the screen gave viability z-score, siRNA alone -2.32; viability vs control, siRNA alone 0.707.
Silencing of DDR2 [SID135620612] gave: viability z-score, siRNA alone 0.936; viability vs control, siRNA alone 1.

Part of the list above, limited to “viability z-score, siRNA alone”:
PDGFRA [SID135620628] = 0.936
BCKDK [SID135620909] = 0.936
MARK3 [SID56478669] = -0.998
